No constants are given. Whether binding was seen depends on the method and setting. In cells and extracts the contact can be indirect. Some results given as binding are weak or reduced against the parent protein; the word gives no strength.
Experiments:
[1] = target: ΔF508-CFTR containing a C-terminal HA-tag (UniProt P13569); assay: co-IP; cells cross-linked with 0.1 mM dithiobis[succinimidyl propionate] (DSP) after cycloheximide chase (2.5 h, 26 or 37 °C); CFTR-HA precipitated with anti-HA antibody from BHK-21 lysate; DSP reduced with 100 mM DTT before SDS-PAGE; blot for co-chaperones
[2] = target: ΔF508-CFTR containing a C-terminal HA-tag (UniProt P13569); assay: co-IP; CFTR-HA precipitated with anti-HA antibody and protein G beads from ~5 mg BHK-21 lysate (150 mM NaCl, 20 mM Tris, 0.1% NP-40, pH 7.4), 4 °C; IP probed for Hsc70/Hsp90; cells rescued at 26 °C, then cycloheximide chase at 26 °C or 37 °C; IP without or with 2 mM ATP plus 1 mM MgCl2 or 150 U/ml apyrase

The chains behind the UniProt entries cited, without tags or fusion partners. Where a name states a change or a piece, a line headed by the entry shows the natural chain unless it says otherwise. A line that says so, or that is headed by a name, gives the form on record, which may keep a tag or linker.
ΔF508-CFTR containing a C-terminal HA-tag (P13569, form named): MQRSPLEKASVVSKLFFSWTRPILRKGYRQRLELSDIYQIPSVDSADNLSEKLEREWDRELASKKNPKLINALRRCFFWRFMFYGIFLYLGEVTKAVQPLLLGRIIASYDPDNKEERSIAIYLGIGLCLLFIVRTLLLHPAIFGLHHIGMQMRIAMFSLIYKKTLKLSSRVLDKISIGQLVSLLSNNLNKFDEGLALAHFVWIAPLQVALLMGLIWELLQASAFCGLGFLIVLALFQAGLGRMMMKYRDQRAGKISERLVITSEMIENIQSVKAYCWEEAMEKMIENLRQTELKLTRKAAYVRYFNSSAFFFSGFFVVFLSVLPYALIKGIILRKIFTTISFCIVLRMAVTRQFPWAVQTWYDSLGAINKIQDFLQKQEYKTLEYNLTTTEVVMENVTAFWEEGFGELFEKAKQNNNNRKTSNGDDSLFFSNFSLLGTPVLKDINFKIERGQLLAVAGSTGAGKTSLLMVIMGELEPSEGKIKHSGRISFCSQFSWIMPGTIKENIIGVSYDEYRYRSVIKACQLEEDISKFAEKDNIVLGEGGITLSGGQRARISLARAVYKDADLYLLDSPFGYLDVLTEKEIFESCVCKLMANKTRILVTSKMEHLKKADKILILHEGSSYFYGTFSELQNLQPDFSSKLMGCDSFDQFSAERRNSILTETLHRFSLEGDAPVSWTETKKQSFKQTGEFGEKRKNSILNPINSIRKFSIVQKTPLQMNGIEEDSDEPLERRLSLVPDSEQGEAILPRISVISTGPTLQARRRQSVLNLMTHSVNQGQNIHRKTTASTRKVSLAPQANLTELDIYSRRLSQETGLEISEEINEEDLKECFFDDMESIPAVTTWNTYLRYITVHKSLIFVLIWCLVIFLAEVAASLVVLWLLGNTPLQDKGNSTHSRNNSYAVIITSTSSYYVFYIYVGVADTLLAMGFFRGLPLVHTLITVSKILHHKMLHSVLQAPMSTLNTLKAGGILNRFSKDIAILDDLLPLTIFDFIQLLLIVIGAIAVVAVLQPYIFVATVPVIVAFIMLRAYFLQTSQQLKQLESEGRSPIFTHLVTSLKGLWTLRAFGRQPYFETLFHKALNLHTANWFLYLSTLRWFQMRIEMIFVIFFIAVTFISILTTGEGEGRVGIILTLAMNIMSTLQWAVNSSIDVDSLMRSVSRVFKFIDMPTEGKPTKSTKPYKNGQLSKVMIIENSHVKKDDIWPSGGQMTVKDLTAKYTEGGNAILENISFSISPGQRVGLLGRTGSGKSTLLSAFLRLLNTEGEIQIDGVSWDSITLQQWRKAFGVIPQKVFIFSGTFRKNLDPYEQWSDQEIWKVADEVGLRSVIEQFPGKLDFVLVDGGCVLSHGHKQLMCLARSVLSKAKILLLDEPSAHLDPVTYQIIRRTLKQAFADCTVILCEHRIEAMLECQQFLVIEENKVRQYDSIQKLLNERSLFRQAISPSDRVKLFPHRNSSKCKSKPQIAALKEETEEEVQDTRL
UniProt G3HD21: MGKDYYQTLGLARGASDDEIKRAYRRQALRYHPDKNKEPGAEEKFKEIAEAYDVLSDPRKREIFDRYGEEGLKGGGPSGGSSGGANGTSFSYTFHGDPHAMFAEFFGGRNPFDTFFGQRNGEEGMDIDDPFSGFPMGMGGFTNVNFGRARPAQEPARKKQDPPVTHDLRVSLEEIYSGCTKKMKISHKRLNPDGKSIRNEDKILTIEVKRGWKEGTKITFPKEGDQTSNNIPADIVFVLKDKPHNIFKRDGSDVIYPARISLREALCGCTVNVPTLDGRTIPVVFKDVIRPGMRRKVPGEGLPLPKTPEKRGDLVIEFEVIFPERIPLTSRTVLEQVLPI
UniProt P19378: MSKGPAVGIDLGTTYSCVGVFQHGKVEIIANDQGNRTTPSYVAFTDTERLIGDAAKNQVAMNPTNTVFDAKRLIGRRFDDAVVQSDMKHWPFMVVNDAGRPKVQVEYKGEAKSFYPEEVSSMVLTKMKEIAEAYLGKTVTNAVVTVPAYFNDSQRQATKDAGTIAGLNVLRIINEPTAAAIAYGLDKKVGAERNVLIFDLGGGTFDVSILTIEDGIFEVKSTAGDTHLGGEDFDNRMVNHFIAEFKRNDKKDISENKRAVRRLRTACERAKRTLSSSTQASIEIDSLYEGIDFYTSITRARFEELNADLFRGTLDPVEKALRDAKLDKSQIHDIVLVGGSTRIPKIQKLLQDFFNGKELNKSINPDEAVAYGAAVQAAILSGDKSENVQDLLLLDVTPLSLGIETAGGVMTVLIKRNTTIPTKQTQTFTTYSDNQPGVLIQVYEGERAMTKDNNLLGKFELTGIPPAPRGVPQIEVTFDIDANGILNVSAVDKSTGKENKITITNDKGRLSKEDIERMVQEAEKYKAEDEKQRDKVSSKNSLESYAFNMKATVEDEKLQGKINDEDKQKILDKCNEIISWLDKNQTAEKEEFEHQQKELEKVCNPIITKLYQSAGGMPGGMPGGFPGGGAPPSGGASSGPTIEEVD

Substance | binding [1] | binding [2]
Hdj1 (from UniProt G3HD21 1-340) | binds | –
Hsc70 (HSPA8) (from UniProt P19378 1-646) | – | binds

Reference: PMC5577305
